PubChem BioAssay AID720703 | Peter MacCallum Cancer Centre – 2013

- Test: 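Kinase knock-down screen for links between AT1R and EGFR signalling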 (primary screen)
- Cells: immortalised, SV40-transformed mammary epithelial cells from human, with stable expression of tagged AT1R
- Reagent: siRNA pool against human genes, 40 nM siRNA pool per well
- Time to read-out: 72 h from transfection to lysis and read-out
- Conditions: angiotensin II stimulation (dose and duration not given); EGFR inhibitor AG1478 also listed
- Measured: 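AlphaScreen bead assay of phosphorylated ERK1/2 in cell lysates, corrected for well confluency, converted to robust z-scores and averaged across two technical replicate plates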
- Direction: phospho-ERK z-score: higher = more ERK phosphorylation after angiotensin II, relative to plate
- Rule for the call: 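Pools were ordered by robust z-score and 50 top-ranked pools, whether they raised or lowered the signal, were chosen for secondary testing; no numeric threshold was reported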
- Meaning of the calls: active = picked for secondary screen; inactive = not picked
This is one part, drawn at random, of 714 deposited reagents. 50 of all reagents (7%) were called active. 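Chosen pools sit at both extremes, so both low and high scores count as candidates; some pools appear more than once.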 A number with no mark means an inactive call. Some reagents were tested in more than one well and are listed for each. No sequences are given here.

gene knocked down	phospho-ERK z-score, replicate mean
BRSK2	-0.01
IPPK	3.53 (active)
PLK4	0.77
GALK1	0.78
TBCK	0.87
PKIA	-0.64
MAPKAPK5	1.5
PRPS1	0.05
PINK1	-0.3
PRKAR2B	0.57
DGKB	0.08
AK4	-1.03
EIF2AK1	-0.08
SRPK1	-0.59
FGFR4	0.48
PRPS1L1	0.9
MAPK7	-0.47
MAP3K12	-0.7
BUB1B	0.07
NUCKS1	0.43
AMHR2	0.46
NME3	-0.32
MLKL	0.43
ZAP70	-0.24
CKMT2	-0.56
AAK1	0.51
HCK	0.5
EPHA6	-0.76
PI4KA	-1.43 (active)
SLK	-1.12
ALPK1	0.59
EPHA1	0.57
BRD4	1.71
RPS6KB2	-0.8
STK40	-1.15
STK40	0.38
LCK	-0.38
ANKK1	0.84
CSNK2A2	-0.17
DLG4	0.82
SPHK2	-0.82
PANK1	0.18
CDK15	0.3
MATK	1.36
CDK11A	-1.34 (active)
LMTK2	0.36
MOK	0.68
THNSL1	0.42
DGKA	1.82
PIK3CG	0.82
EPHB3	-1.31 (active)
MAP4K3	-0.16
MAGI3	0.22
PHKA2	-0.25
PMVK	2.91
GRK2	1.09
LATS1	-0.3
EEF2K	-0.98
TTBK1	-0.36
RSKR	0.36
NEK9	-0.38
PRKY	-1.4
STKLD1	-0.03
ROR2	-0.24
CIT	0.43
GRK4	0.76
GRK7	1.2

Records above marked active:
gene knocked down	phospho-ERK z-score, replicate mean
IPPK	3.53 (active)
PI4KA	-1.43 (active)
CDK11A	-1.34 (active)
EPHB3	-1.31 (active)

The listing continues:
gene knocked down	phospho-ERK z-score, replicate mean
SCYL3	-0.3
SIK2	1.03
CALM3	0.08
CIB2	0.92
ELP1	-0.42
TRIB3	-0.84
ADCK1	-0.25
PDPK1	-0.18
CHEK2	-0.22
CRIM1	0.18
CSNK1D	-0.08
PLK2	-0.07
RPS6KA4	3.32 (active)
AK2	0.1
CAMK2G	-0.5
IRAK3	-0.88
RPS6KA1	-0.4
PAK1	-0.75
DYRK1B	-0.18
STK10	-0.54
RPS6KA2	-0.24
MAP2K5	2
PRKACA	0.03
NTRK1	1.45
MAP3K6	0.84
RIOK2	-0.87
CSNK2A1	0.92
NADK	-0.88
RIOK1	0.22
MAP4K5	0.43
PANK2	-1.23
FGR	-0.2
GRK3	0.01
BRDT	-0.43
MST1R	1.79
AGK	-1.38 (active)
LTK	-0.66
STK36	0.57
CDKL3	0.66
CLK3	-0.02
MAP3K15	0.72
NEK2	1.53
TK2	-0.4
